{
  "sequences": {"note": "Sequences of proteins named here, by UniProt entry; tags and fusion partners are left off. A change or cut given only in a name is not applied to a line headed by its entry. Residues count along the entry.", "UniProt P15941, residues 24-1255": "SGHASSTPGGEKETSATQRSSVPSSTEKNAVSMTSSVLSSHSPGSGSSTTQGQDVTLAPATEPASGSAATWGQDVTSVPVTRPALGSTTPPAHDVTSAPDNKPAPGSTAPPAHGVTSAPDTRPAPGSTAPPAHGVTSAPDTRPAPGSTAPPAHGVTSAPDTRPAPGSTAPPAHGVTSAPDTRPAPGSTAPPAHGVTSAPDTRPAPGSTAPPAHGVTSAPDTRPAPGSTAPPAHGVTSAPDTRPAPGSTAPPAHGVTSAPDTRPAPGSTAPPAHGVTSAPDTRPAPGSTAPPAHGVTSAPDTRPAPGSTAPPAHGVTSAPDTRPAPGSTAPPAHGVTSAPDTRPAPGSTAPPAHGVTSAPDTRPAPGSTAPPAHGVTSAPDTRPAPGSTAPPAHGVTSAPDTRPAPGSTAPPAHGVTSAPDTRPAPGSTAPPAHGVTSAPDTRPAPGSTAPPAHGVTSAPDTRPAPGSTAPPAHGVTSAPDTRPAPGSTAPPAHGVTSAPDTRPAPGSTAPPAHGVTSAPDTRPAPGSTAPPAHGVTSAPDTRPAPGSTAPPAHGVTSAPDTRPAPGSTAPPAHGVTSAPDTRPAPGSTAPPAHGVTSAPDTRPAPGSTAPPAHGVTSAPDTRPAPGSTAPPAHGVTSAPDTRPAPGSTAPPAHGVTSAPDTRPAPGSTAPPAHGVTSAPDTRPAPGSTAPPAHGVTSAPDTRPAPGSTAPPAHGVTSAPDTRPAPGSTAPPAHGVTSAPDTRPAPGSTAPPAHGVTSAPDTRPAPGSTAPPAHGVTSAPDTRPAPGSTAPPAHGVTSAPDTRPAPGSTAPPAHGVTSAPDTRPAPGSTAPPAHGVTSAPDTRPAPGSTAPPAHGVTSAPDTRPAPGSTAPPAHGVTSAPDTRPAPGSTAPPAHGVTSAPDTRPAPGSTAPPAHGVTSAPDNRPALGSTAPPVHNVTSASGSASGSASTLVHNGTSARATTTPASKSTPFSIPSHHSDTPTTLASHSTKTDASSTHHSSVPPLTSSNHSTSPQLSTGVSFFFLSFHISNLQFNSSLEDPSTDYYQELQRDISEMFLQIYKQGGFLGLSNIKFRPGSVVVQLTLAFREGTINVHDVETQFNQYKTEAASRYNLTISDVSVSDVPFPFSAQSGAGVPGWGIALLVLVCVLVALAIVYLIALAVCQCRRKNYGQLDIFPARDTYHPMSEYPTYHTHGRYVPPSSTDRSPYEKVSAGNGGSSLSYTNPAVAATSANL", "UniProt P67775": "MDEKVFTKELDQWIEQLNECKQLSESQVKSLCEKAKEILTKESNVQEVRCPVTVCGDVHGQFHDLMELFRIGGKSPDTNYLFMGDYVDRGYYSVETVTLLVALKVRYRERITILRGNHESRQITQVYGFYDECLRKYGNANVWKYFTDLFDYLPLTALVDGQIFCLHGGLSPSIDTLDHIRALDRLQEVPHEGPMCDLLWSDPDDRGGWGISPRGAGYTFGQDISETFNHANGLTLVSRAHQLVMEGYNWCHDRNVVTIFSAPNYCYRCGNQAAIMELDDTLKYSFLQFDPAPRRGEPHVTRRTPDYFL"},
  "source": "paper PMC12224998",
  "molecules": {"B1": {"name": "protein kinase C ζ (PKCζ) (protein, UniProt Q05513 1-592)", "chain": "MPSRTGPKMEGSGGRVRLKAHYGGDIFITSVDAATTFEELCEEVRDMCRLHQQHPLTLKWVDSEGDPCTVSSQMELEEAFRLARQCRDEGLIIHVFPSTPEQPGLPCPGEDKSIYRRGARRWRKLYRANGHLFQAKRFNRRAYCGQCSERIWGLARQGYRCINCKLLVHKRCHGLVPLTCRKHMDSVMPSQEPPVDDKNEDADLPSEETDGIAYISSSRKHDSIKDDSEDLKPVIDGMDGIKISQGLGLQDFDLIRVIGRGSYAKVLLVRLKKNDQIYAMKVVKKELVHDDEDIDWVQTEKHVFEQASSNPFLVGLHSCFQTTSRLFLVIEYVNGGDLMFHMQRQRKLPEEHARFYAAEICIALNFLHERGIIYRDLKLDNVLLDADGHIKLTDYGMCKEGLGPGDTTSTFCGTPNYIAPEILRGEEYGFSVDWWALGVLMFEMMAGRSPFDIITDNPDMNTEDYLFQVILEKPIRIPRFLSVKASHVLKGFLNKDPKERLGCRPQTGFSDIKSHAFFRSIDWDLLEKKQALPPFQPQITDDYGLDNFDTQFTSEPVQLTPDDEDAIKRIDQSEFEGFEYINPLLLSTEESV"}},
  "key": {"[1]": {"target": "MUC1 full length with HA tag at the C-terminal (UniProt P15941)", "experiment": "co-IP; MUC1-HA-overexpressing HEK293T cells; NETN150 lysis buffer, antibody overnight at 4 °C, protein A/G plus agarose, western blot (Figure S3C)"}, "[2]": {"target": "PP2A-Cα (endogenous, NCI-H69) (human (endogenous in NCI-H69)) (UniProt P67775)", "experiment": "co-IP; endogenous proteins, NCI-H69/g-Ctrl and NCI-H69/g-MUC1 cells; IP with anti-PP2A-Cα antibody (Figure 6A) or anti-PKCζ antibody (Figure 6B), western blot"}},
  "note": "These are yes or no findings as the source states them, for the method shown. Binding seen in cells or lysates may run through a third protein. Binding calls can cover weak binding; strength is not graded here.",
  "data": [
    {"molecule": "PP2A Cα subunit (from UniProt P67775)", "values": [
      {"measurement": "binding", "setting": "[1]", "result": "binds"}
    ]},
    {"molecule": "B1", "values": [
      {"measurement": "binding", "setting": "[2]", "result": "binds"}
    ]}
  ]
}
